Record: PubChem BioAssay AID1259254 (NCATS, 2017)
Screen: 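Gene knock-downs that lead to re-replication, shown by excess G2 DNA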 (primary screen). System: human HCT116 colorectal cancer cells. Knock-down reagent: single siRNA against human genes. Time to read-out: 3 days. Measurement: 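Imaged Hoechst DNA stain sorts each cell into a cycle phase by DNA amount; per plate, G2 fraction set to 0% for non-targeting and 100% for GMNN siRNA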. Direction: G2 robust z-score and G2 cells, % of GMNN control: higher = more G2 cells, more excess DNA replication; raw share of cells in G2: higher = larger share of cells with G2 DNA content. Hit rule: 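An siRNA counts as active if its G2 robust z-score lies at least 5 MADs above the screen median; here such calls match roughly 38% of GMNN control or more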.
The deposit covers about 59,000 reagents; below is a random part of them. Of all reagents, about 1,550 (2.6%) were called active. 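G2 share is only a proxy for re-replication; each gene was hit by three separate siRNAs, and active genes were retested.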 Raw values are not corrected between plates. Unmarked entries are inactive. Reagents against one gene are numbered here. Reagent sequences are not shown. Not stated in the record: the amount of reagent.

Gene,siRNA no.,G2 robust z-score,"G2 cells, % of GMNN control",raw share of cells in G2 (%)
RELN,1,0.479,6.34,7.77
RELN,2,0.351,5.44,6.83
RELN,3,-0.349,0.513,4.1
PPM1G,1,-1.1,-4.78,2.86
PPM1G,2,0.607,7.24,5.68
PPM1G,3,3.42,27,13.6
EPN1,1,1.29,12,7.04
EPN1,2,-0.439,-0.123,5.85
EPN1,3,1.86,16.1,8.68
TMEM45B,1,5.71 (active),43.1,21.4
TMEM45B,2,1.72,15.1,7.82
TMEM45B,3,-0.482,-0.425,1.69
NUP133,1,0.242,4.67,6.32
NUP133,2,-0.195,1.6,4.8
NUP133,3,0.641,7.48,5.52
ENDOD1,1,0.485,6.38,8.93
ENDOD1,2,-1.42,-7.01,1.81
ENDOD1,3,-0.0969,2.29,4.65
LRP1B,1,0.605,7.22,6.57
LRP1B,2,-0.555,-0.934,5.53
LRP1B,3,-1.07,-4.56,2.56
FBXW9,1,-1.58,-8.15,1.39
FBXW9,2,-0.98,-3.93,2.29
FBXW9,3,-0.789,-2.58,1.62
TMUB2,1,0.27,4.87,6.7
TMUB2,2,0.143,3.97,6.39
TMUB2,3,1.86,16,6.93
CSRNP1,1,-1.03,-4.31,2.7
CSRNP1,2,-0.206,1.52,5.29
CSRNP1,3,1.54,13.8,6.34
ETNK2,1,0.0677,3.44,6.44
ETNK2,2,1.18,11.3,9.09
ETNK2,3,3.79,29.6,13.2
SNRNP70,1,0.941,9.59,8.91
SNRNP70,2,-0.236,1.31,5
SNRNP70,3,-0.153,1.89,4.58
ATP5PD,1,1.42,12.9,11.2
ATP5PD,2,1.7,14.9,10.2
ATP5PD,3,-0.758,-2.37,2.54
ERI3,1,4.17,32.3,18.7
ERI3,2,-0.463,-0.287,4.48
ERI3,3,5.1 (active),38.8,13
LOC649935 (retired record),1,2.36,19.5,10.4
LOC649935 (retired record),2,-0.639,-1.53,2.32
LOC649935 (retired record),3,0.418,5.91,5.9
CNPY1,1,-0.01,2.9,4.7
CNPY1,2,-0.255,1.17,3.5
CNPY1,3,-0.23,1.35,3.68

Next part, starting with the last 6 of the part before.
Gene,siRNA no.,G2 robust z-score,"G2 cells, % of GMNN control",raw share of cells in G2 (%)
LOC649935 (retired record),1,2.36,19.5,10.4
LOC649935 (retired record),2,-0.639,-1.53,2.32
LOC649935 (retired record),3,0.418,5.91,5.9
CNPY1,1,-0.01,2.9,4.7
CNPY1,2,-0.255,1.17,3.5
CNPY1,3,-0.23,1.35,3.68
LSM11,1,-0.00588,2.93,5.93
LSM11,2,0.0951,3.64,6.03
LSM11,3,-0.783,-2.54,4.74
SETMAR,1,0.734,8.13,6.65
SETMAR,2,5.12 (active),39,18.8
SETMAR,3,-0.165,1.81,5.17
TRMT10A,1,-0.494,-0.507,5.44
TRMT10A,2,-0.296,0.884,5.35
TRMT10A,3,-1.15,-5.13,2.54
OR1K1,1,0.751,8.25,6.81
OR1K1,2,-0.798,-2.65,2.46
OR1K1,3,-0.594,-1.21,4.29
TIRAP,1,-1.63,-8.5,1.73
TIRAP,2,-0.442,-0.145,4.43
TIRAP,3,-0.63,-1.47,4.34
SHANK3,1,-0.44,-0.127,4.03
SHANK3,2,0.192,4.32,4.35
SHANK3,3,-0.24,1.28,3.33
APOC1,1,-0.941,-3.65,3.48
APOC1,2,1.88,16.2,10.8
APOC1,3,6.09 (active),45.8,21.1
POLDIP2,1,-0.617,-1.38,3.9
POLDIP2,2,0.323,5.24,6.21
POLDIP2,3,0.131,3.89,4.66
FLJ45513,1,-0.57,-1.04,2.7
FLJ45513,2,0.184,4.26,5.56
FLJ45513,3,-0.613,-1.34,2.88
SPTSSA,1,2.65,21.6,11.4
SPTSSA,2,-0.73,-2.17,2.23
SPTSSA,3,0.828,8.79,5.54
WFDC6,1,-0.000817,2.96,7.37
WFDC6,2,-0.388,0.238,4.79
WFDC6,3,-0.00339,2.94,5.94
SLC68A1,1,-1.26,-5.9,1.99
SLC68A1,2,0.526,6.67,7.22
SLC68A1,3,1.33,12.3,5.74
GRB2,1,-0.605,-1.29,3.02
GRB2,2,1.89,16.3,12.9
GRB2,3,-0.762,-2.39,3.21
